Results on five molecules are retold here after paper PMC3168509, “Insights into the Role of Yeast eIF2A in IRES-Mediated Translation” (PLoS ONE, 2011).

Sequences of proteins named here, by UniProt entry; tags and fusion partners are left off. A change or cut given only in a name is not applied to a line headed by its entry.
UniProt P02994: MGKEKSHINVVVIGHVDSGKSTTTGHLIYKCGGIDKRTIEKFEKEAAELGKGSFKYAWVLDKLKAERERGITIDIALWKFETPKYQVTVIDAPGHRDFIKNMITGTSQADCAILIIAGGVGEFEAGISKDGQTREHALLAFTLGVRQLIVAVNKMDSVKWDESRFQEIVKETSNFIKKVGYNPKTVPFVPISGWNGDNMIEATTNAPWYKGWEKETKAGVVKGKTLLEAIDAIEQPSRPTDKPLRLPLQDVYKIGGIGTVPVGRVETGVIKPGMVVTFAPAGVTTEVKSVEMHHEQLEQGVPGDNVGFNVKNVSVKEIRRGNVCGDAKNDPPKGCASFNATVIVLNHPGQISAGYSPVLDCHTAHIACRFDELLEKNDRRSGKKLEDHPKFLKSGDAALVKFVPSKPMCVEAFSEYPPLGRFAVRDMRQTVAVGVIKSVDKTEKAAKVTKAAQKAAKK
UniProt P40150: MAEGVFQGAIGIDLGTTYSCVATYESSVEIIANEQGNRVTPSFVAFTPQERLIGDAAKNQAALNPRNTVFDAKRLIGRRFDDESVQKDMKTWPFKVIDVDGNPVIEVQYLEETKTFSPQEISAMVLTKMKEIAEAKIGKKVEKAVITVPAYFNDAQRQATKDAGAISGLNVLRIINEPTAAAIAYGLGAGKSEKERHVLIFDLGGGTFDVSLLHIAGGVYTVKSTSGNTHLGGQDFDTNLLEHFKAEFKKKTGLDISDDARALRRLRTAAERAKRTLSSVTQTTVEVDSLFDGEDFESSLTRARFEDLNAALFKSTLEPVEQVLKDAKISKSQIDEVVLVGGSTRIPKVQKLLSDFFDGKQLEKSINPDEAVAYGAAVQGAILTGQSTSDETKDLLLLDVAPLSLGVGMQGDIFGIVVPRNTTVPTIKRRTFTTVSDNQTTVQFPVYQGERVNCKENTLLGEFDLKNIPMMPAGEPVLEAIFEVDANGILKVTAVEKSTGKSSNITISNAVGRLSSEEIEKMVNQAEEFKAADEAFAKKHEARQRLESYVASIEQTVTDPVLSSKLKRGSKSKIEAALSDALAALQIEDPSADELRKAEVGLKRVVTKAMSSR
UniProt Q13526: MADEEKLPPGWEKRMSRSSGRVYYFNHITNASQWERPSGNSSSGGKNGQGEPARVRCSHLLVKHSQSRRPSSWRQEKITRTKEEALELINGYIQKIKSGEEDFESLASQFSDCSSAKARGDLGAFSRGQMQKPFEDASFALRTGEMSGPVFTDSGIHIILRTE

The target in test [1] is T1, 3-phosphoglycerate kinase (Pgk1p), endogenous (S. cerevisiae (endogenous in yeast)) (UniProt P00560).
T1 sequence: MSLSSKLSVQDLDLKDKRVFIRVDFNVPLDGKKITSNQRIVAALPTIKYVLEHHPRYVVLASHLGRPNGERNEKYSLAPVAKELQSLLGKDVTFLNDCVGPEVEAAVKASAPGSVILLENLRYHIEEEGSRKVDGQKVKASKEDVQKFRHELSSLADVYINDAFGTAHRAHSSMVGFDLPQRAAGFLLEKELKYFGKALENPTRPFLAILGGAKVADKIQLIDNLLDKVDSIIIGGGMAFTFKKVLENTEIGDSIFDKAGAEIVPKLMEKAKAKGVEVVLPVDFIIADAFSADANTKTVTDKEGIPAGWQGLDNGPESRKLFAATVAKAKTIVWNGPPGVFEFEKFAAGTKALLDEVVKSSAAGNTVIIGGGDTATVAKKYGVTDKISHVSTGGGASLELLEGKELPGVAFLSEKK
Put plainly: co-IP; pre-cleared eIF2A-HA yeast lysate, antibody (α-HA, α-3-phosphoglycerate kinase, α-eEF1A antiserum or preimmune serum; α-Kem1p experiments done likewise) at 4°C, protein A Sepharose, NETK washes, Western blot; without RNase A. For orientation: A western blot detects proteins with antibodies after separation by electrophoresis.

For test [2], the target named is T2, eIF2A-HA (chromosomally C-terminally HA-tagged eIF2A under its endogenous promoter) (S. cerevisiae) (UniProt P53235).
T2 sequence: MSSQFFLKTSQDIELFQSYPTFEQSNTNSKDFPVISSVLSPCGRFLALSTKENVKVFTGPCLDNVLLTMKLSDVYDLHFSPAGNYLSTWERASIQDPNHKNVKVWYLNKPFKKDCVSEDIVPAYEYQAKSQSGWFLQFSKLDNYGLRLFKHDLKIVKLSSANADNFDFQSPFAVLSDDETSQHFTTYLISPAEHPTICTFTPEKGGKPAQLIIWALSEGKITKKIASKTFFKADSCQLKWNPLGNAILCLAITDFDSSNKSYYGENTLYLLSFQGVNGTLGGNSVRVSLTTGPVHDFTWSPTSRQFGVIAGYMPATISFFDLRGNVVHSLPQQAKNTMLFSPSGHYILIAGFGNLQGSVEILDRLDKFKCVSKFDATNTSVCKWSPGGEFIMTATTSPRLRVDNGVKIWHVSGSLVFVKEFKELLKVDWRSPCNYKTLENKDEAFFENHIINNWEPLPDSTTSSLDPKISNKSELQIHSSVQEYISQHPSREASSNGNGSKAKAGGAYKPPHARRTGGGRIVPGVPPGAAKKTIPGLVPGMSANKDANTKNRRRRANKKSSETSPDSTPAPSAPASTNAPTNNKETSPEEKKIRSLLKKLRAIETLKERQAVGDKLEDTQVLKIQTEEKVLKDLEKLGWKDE
The description is as above.

The target in test [3] is GST-eEF1A (full-length eEF1A/Tef1p fused to GST) (S. cerevisiae) (UniProt P02994). Nature of the test: pull-down; GST-fusion protein on glutathione-sepharose 4B incubated with 140 µg pre-cleared lysate of eIF2A-HA yeast or C-terminal eIF2A-HA deletion yeast, washed with NETK buffer, Western blot for HA; without RNase A; only the target purified.
Test [4] deals with GST-Ssb2p (S. cerevisiae) (UniProt P40150). The test is described as above.
The target of test [5] is GST-eEF1A S405P (S. cerevisiae) (UniProt P02994). Described as above.
In test [6] the target is GST-PIN1, a mammalian cis-trans prolyl isomerase (mammalian) (UniProt Q13526). Described as above.
Test [7] deals with GST-Ssb2p (S. cerevisiae) (UniProt P40150). Nature of the test: pull-down; as the GST pull-down with eIF2A-HA yeast lysate, half of the reaction treated with 10 µg RNaseA for 1 h at 4°C before SDS-PAGE and Western blot for HA; only the target purified.
Test [8] deals with GST-eEF1A (full-length eEF1A/Tef1p fused to GST) (S. cerevisiae) (UniProt P02994). The test is described as above.
The target of test [9] is eEF1A (eukaryotic translation elongation factor 1A), endogenous (S. cerevisiae (endogenous in yeast)) (UniProt P02994). Put plainly: co-IP; pre-cleared eIF2A-HA yeast lysate, antibody (α-HA, α-3-phosphoglycerate kinase, α-eEF1A antiserum or preimmune serum; α-Kem1p experiments done likewise) at 4°C, protein A Sepharose, NETK washes, Western blot; without RNase A.
In test [10] the target is GST-eEF1A (full-length eEF1A/Tef1p fused to GST) (S. cerevisiae) (UniProt P02994). Put plainly: pull-down; full-length GST-eEF1A on glutathione-Sepharose with lysates of ΔeIF2A yeast carrying YCplac111-YP, grown 1 h without or with 6% ethanol; Western blot for HA, bands quantified with Image J against 8% input; only the target purified.

No constants are given. Whether binding was seen depends on the method and setting. In cells and extracts the contact can be indirect. Some entries that bind do so weakly or less than the wild type. For part of these data: Sequences can lack the tags named with a protein.

As to “eEF1A (eukaryotic translation elongation factor 1A), endogenous (from UniProt P02994 1-458)”, the binding entry in test [1] is recorded as “no binding”; in test [2] it was “binds”.

B1: C-terminally truncated, HA-tagged eIF2A with the further deletion of amino acids 460–571 (domain or fragment, UniProt P53235 1-460)
chain: MSSQFFLKTSQDIELFQSYPTFEQSNTNSKDFPVISSVLSPCGRFLALSTKENVKVFTGPCLDNVLLTMKLSDVYDLHFSPAGNYLSTWERASIQDPNHKNVKVWYLNKPFKKDCVSEDIVPAYEYQAKSQSGWFLQFSKLDNYGLRLFKHDLKIVKLSSANADNFDFQSPFAVLSDDETSQHFTTYLISPAEHPTICTFTPEKGGKPAQLIIWALSEGKITKKIASKTFFKADSCQLKWNPLGNAILCLAITDFDSSNKSYYGENTLYLLSFQGVNGTLGGNSVRVSLTTGPVHDFTWSPTSRQFGVIAGYMPATISFFDLRGNVVHSLPQQAKNTMLFSPSGHYILIAGFGNLQGSVEILDRLDKFKCVSKFDATNTSVCKWSPGGEFIMTATTSPRLRVDNGVKIWHVSGSLVFVKEFKELLKVDWRSPCNYKTLENKDEAFFENHIINNWEPLPDS
For B1, in test [3], the binding result is “no binding”.

B2: eIF2A-HA (chromosomally C-terminally HA-tagged eIF2A under its endogenous promoter) (protein, UniProt P53235 1-642)
chain: MSSQFFLKTSQDIELFQSYPTFEQSNTNSKDFPVISSVLSPCGRFLALSTKENVKVFTGPCLDNVLLTMKLSDVYDLHFSPAGNYLSTWERASIQDPNHKNVKVWYLNKPFKKDCVSEDIVPAYEYQAKSQSGWFLQFSKLDNYGLRLFKHDLKIVKLSSANADNFDFQSPFAVLSDDETSQHFTTYLISPAEHPTICTFTPEKGGKPAQLIIWALSEGKITKKIASKTFFKADSCQLKWNPLGNAILCLAITDFDSSNKSYYGENTLYLLSFQGVNGTLGGNSVRVSLTTGPVHDFTWSPTSRQFGVIAGYMPATISFFDLRGNVVHSLPQQAKNTMLFSPSGHYILIAGFGNLQGSVEILDRLDKFKCVSKFDATNTSVCKWSPGGEFIMTATTSPRLRVDNGVKIWHVSGSLVFVKEFKELLKVDWRSPCNYKTLENKDEAFFENHIINNWEPLPDSTTSSLDPKISNKSELQIHSSVQEYISQHPSREASSNGNGSKAKAGGAYKPPHARRTGGGRIVPGVPPGAAKKTIPGLVPGMSANKDANTKNRRRRANKKSSETSPDSTPAPSAPASTNAPTNNKETSPEEKKIRSLLKKLRAIETLKERQAVGDKLEDTQVLKIQTEEKVLKDLEKLGWKDE
For B2, the binding entry in [4] is recorded as “binds”; in test [3], “binds”; in test [5], “binds”; in test [6] it was “no binding”; in test [7], “binds”; in test [8], “binds”. Besides, the binding result in test [9] is listed as “binds”.

B3: HA-eIF2A (N-terminally HA-tagged eukaryotic initiation factor 2A expressed from YCplac111-YP) (natural protein, S. cerevisiae, UniProt P53235 1-642, looked up)
chain: MSSQFFLKTSQDIELFQSYPTFEQSNTNSKDFPVISSVLSPCGRFLALSTKENVKVFTGPCLDNVLLTMKLSDVYDLHFSPAGNYLSTWERASIQDPNHKNVKVWYLNKPFKKDCVSEDIVPAYEYQAKSQSGWFLQFSKLDNYGLRLFKHDLKIVKLSSANADNFDFQSPFAVLSDDETSQHFTTYLISPAEHPTICTFTPEKGGKPAQLIIWALSEGKITKKIASKTFFKADSCQLKWNPLGNAILCLAITDFDSSNKSYYGENTLYLLSFQGVNGTLGGNSVRVSLTTGPVHDFTWSPTSRQFGVIAGYMPATISFFDLRGNVVHSLPQQAKNTMLFSPSGHYILIAGFGNLQGSVEILDRLDKFKCVSKFDATNTSVCKWSPGGEFIMTATTSPRLRVDNGVKIWHVSGSLVFVKEFKELLKVDWRSPCNYKTLENKDEAFFENHIINNWEPLPDSTTSSLDPKISNKSELQIHSSVQEYISQHPSREASSNGNGSKAKAGGAYKPPHARRTGGGRIVPGVPPGAAKKTIPGLVPGMSANKDANTKNRRRRANKKSSETSPDSTPAPSAPASTNAPTNNKETSPEEKKIRSLLKKLRAIETLKERQAVGDKLEDTQVLKIQTEEKVLKDLEKLGWKDE
notes: yeast eukaryotic initiation factor 2A, encoded by YGR054w; the HA-tagged eIF2A coding region behind its natural promoter; the kind of modification is not known; also called HA-tagged eIF2A; YGR054w; source: BY4684 ΔeIF2A yeast transformed with YCplac111-YP (native promoter), in lysate; not shown: HA, N-terminal, kept
Take B3: in test [10], the binding result was “binds”.

B4: C-terminally truncated, HA-tagged eIF2A with deletion of amino acids 571–642 (domain or fragment, UniProt P53235 1-571)
chain: MSSQFFLKTSQDIELFQSYPTFEQSNTNSKDFPVISSVLSPCGRFLALSTKENVKVFTGPCLDNVLLTMKLSDVYDLHFSPAGNYLSTWERASIQDPNHKNVKVWYLNKPFKKDCVSEDIVPAYEYQAKSQSGWFLQFSKLDNYGLRLFKHDLKIVKLSSANADNFDFQSPFAVLSDDETSQHFTTYLISPAEHPTICTFTPEKGGKPAQLIIWALSEGKITKKIASKTFFKADSCQLKWNPLGNAILCLAITDFDSSNKSYYGENTLYLLSFQGVNGTLGGNSVRVSLTTGPVHDFTWSPTSRQFGVIAGYMPATISFFDLRGNVVHSLPQQAKNTMLFSPSGHYILIAGFGNLQGSVEILDRLDKFKCVSKFDATNTSVCKWSPGGEFIMTATTSPRLRVDNGVKIWHVSGSLVFVKEFKELLKVDWRSPCNYKTLENKDEAFFENHIINNWEPLPDSTTSSLDPKISNKSELQIHSSVQEYISQHPSREASSNGNGSKAKAGGAYKPPHARRTGGGRIVPGVPPGAAKKTIPGLVPGMSANKDANTKNRRRRANKKSSETSPDSTPAP
As for B4, in test [3], the binding result was “binds”.
